Measurements reported in PubChem BioAssay AID686943 (Drosophila RNAi Screening Center, 2013).

- Test: 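Search across the genome for regulators of signalling from receptor tyrosine kinase to ERK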 (primary screen)
- Cells: Drosophila S2R+ haemocyte-like cells expressing YFP-tagged ERK (Rolled)
- Knock-down reagent: long dsRNA against Drosophila genes
- Conditions: insulin stimulation versus unstimulated cells; dose and duration not given
- Read-out: 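Antibody staining for doubly phosphorylated ERK divided by ERK-YFP signal, as plate z-scores, in insulin-treated and untreated cells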
- Scale: replicate 1, z-score of dpERK with insulin and replicate 2, z-score of dpERK with insulin: higher = more active ERK per ERK-YFP after insulin; replicate 1, z-score of dpERK under basal conditions: higher = more basal active ERK per ERK-YFP; replicate 1, z-score of ERK-YFP with insulin: higher = more YFP-tagged ERK signal
The screen tested about 23,000 reagents; below is an unselected part of those that have a named target and a result. 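Extra replicates exist only for a retested subset of genes; insulin dose and duration not given; both raised and lowered dpERK matter.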 Reagents against one gene are numbered here. Names joined by + are all predicted targets of the reagent. Not given: the amount of reagent, the time to read-out.

| Target gene | reagent | replicate 1, z-score of dpERK with insulin | replicate 2, z-score of dpERK with insulin | replicate 1, z-score of dpERK under basal conditions | replicate 1, z-score of ERK-YFP with insulin |
| --- | --- | --- | --- | --- | --- |
| Mkrn1 (Makorin 1) | 1 | 0.59 | 0.37 | 1.11 | 0.16 |
| wac (wee Augmin) | 1 | -1.16 | -0.42 | -0.58 | 0.16 |
| CG1208 | 1 | -0.39 | -0.27 | -1.11 | 0.84 |
| RYBP (Ring and YY1 Binding Protein) | 1 | 0.19 | -0.03 | -1.29 | -0.53 |
| Gr28a (Gustatory receptor 28a) | 1 | -0.04 | 1.87 | -1.05 | -1.75 |
| Polr3G (RNA polymerase III subunit G) | 1 | 0.25 | 0.56 | -0.65 | -0.13 |
| CG8774 | 1 | 0.6 | 0.2 | -0.48 | -0.17 |
| CG5455 | 1 | -0.33 | 0.42 | -0.98 | -3.91 |
| Drsl3 (Drosomycin-like 3) | 1 | 1.61 | 1.36 | 0.03 | -0.74 |
| Ssl (Suppressor of Stellate-like) | 1 | 0.51 | 0.32 | 0.38 | -0.31 |
| Lcp65Ag3 (Larval cuticle protein) | 1 | 0.47 | 0.93 | -0.29 | 0.13 |
| CG7367 | 1 | -0.7 | -1.15 | 1.8 | -0.69 |
| Dyro (Dpt-YFP repressor by overexpression) | 1 | -0.22 | 0.44 | -0.46 | 1.05 |
| CG6059 | 1 | -0.24 | -0.21 | -0.71 | 0.19 |
| eIF4A (eukaryotic translation initiation factor 4A) | 1 | -2.54 | -0.84 | -0.77 | 0.98 |
| CG42375 + CG9288 | 1 | 0.89 | -0.4 | -0.22 | -0.34 |
| CG2116 | 1 | 0.25 | -0.33 | -0.79 | 0.22 |
| Usp10 (Ubiquitin specific protease 10) | 1 | 0.77 | 2.06 | -0.82 | 2.41 |
| Usp10 (Ubiquitin specific protease 10) | 2 | -0.24 | 0.96 | 0.22 | 0.08 |
| CG11550 | 1 | -0.14 | -1.91 | 0.19 | -0.05 |
| Adar (Adenosine deaminase acting on RNA) | 1 | 0.69 | -0.12 | 0.41 | -0.2 |
| Ugt302E1 (UDP-glycosyltransferase family 302 member E1) | 1 | -0.13 | -0.4 | 0.25 | 0.22 |
| Or35a (Odorant receptor 35a) | 1 | 0.78 | 0 | 0.42 | -0.03 |
| CG32625 | 1 | 0.25 | 0.61 | 0.85 | 0.1 |
| eEF1delta (eukaryotic translation elongation factor 1 delta) | 1 | -0.6 | -0.61 | 0.71 | -1.03 |
| Polr2C (RNA polymerase II subunit C) | 1 | 3.07 | 2.54 | -2.77 | -3.16 |
| CG34276 | 1 | 0.37 | 0.59 | -0.48 | 0.48 |
| Sry-alpha (Serendipity alpha) | 1 | -1.45 | 0.11 | 2.83 | -2.1 |
| edl (ETS-domain lacking) | 1 | 0.32 | 0.8 | -0.64 | 0.32 |
| Pbp45 (PSEA-binding protein 45kD) | 1 | 0.98 | 0.48 | -0.62 | -0.16 |
| CD98hc (CD98 heavy chain) | 1 | 0.01 | 0.21 | 0.86 | 0.21 |
| Mal-B2 (Maltase B2) | 1 | 1.67 | 0.59 | -0.03 | 0.56 |
| CG32052 | 1 | 0.74 | 0.03 | -0.15 | 0.03 |
| Hsp70Bb + Hsp70Bbb | 1 | 1.13 | -0.11 | 0.09 | 0.25 |
| Urm1 (Ubiquitin-related modifier 1) | 1 | -0.05 | 0.48 | 0.21 | 0.49 |
| Snx21 (Sorting nexin 21) | 1 | -0.28 | 0.27 | 1.47 | 0.87 |
| CG12507 | 1 | 0.63 | -0.06 | 1.7 | -0.48 |
| CG15027 | 1 | 0.45 | 1.11 | 2.4 | -0.43 |
| GlcAT-S (Glucuronyltransferase S) | 1 | -0.84 | -1.15 | 0.98 | 0.26 |

4 successive records already listed, quoted:
| Target gene | reagent | replicate 1, z-score of dpERK with insulin | replicate 2, z-score of dpERK with insulin | replicate 1, z-score of dpERK under basal conditions | replicate 1, z-score of ERK-YFP with insulin |
| --- | --- | --- | --- | --- | --- |
| CG34276 | 1 | 0.37 | 0.59 | -0.48 | 0.48 |
| Sry-alpha (Serendipity alpha) | 1 | -1.45 | 0.11 | 2.83 | -2.1 |
| edl (ETS-domain lacking) | 1 | 0.32 | 0.8 | -0.64 | 0.32 |
| Pbp45 (PSEA-binding protein 45kD) | 1 | 0.98 | 0.48 | -0.62 | -0.16 |
